Experimental data: PubChem BioAssay AID1259308 (NCATS, 2017)
Here is an unselected part of about 59,000 deposited reagents. About 1,510 of all reagents (2.6%) count as active. 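Calls use total luciferase alone and ignore viability, so some active siRNAs may act by altering cell number.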 Reagent sequences are not shown.

- Aim: 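Knock-downs that increase output of a recombinant reporter protein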 (primary screen)
- Cells: human HEK293 embryonic kidney cells stably expressing firefly luciferase (HEK-CMV-Luc2-Hygro)
- Reagents: single siRNA against human genes, 0.8 pmol siRNA per well
- Timing: 72 h
- Measurement: 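Reporter luminescence and viable-cell signal on separate replicate plates, given as percent of non-targeting control and median/MAD z-scores, plus per-cell luciferase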
- Scale: total luciferase, z-score and total luciferase, % of control: higher = more reporter protein produced; luciferase per cell, z-score: higher = more reporter output per viable cell; viable cells, % of control: higher = more viable cells
- Rule for the call: 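An siRNA counts as active if its total luciferase robust z-score exceeds 3; genes with two or more such siRNAs out of three were retested with fresh siRNAs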
- Calls: active = raised luciferase; inactive = no rise

gene knocked down	PubChem SID	total luciferase, z-score	total luciferase, % of control	luciferase per cell, z-score	viable cells, % of control	activity call
AMACR	SID160736654	0.353	88.9	0.0101	99.1	inactive
AMACR	SID160736656	3.72	156	1.64	113	active
AMACR	SID160736657	1.05	103	1.45	78.5	inactive
PAK6	SID160745310	0.655	94.9	0.97	82.1	inactive
PAK6	SID160745311	0.83	98.4	1.6	72.2	inactive
PAK6	SID160745312	1.99	121	3.23	58.1	inactive
CDK1	SID160759882	-0.85	65	0.176	69.3	inactive
CDK1	SID160759988	-0.695	68.1	-0.874	95.7	inactive
CDK1	SID160760088	0.0249	82.4	-0.461	104	inactive
RAB30	SID160738705	-0.857	64.8	-1.05	95.6	inactive
RAB30	SID160738706	0.811	98	0.934	85.6	inactive
RAB30	SID160738707	-1.23	57.5	-1.58	97.4	inactive
HMGN5	SID160748835	0.00233	81.9	-0.307	99.3	inactive
HMGN5	SID160748836	0.499	91.8	0.368	93.1	inactive
HMGN5	SID160748838	-2.03	41.5	-2.73	94.9	inactive
INSM1	SID160775889	0.195	85.8	0.337	87.7	inactive
INSM1	SID160775890	1.42	110	0.907	96.8	inactive
INSM1	SID160775891	-0.0584	80.7	-0.488	103	inactive
AP1S1	SID160743979	-1.2	58.1	-1.77	103	inactive
AP1S1	SID160743990	0.905	99.9	0.275	104	inactive
AP1S1	SID160744001	-1.9	44.1	-1.65	76.1	inactive
PTTG1	SID160721777	-0.789	66.2	-1.24	103	inactive
PTTG1	SID160721778	1.52	112	0.475	111	inactive
PTTG1	SID160732154	0.12	84.3	0.197	89.4	inactive
MIPEPP3	SID160734102	1.75	117	0.407	117	inactive
MIPEPP3	SID160770553	0.878	99.3	1.11	82.8	inactive
MIPEPP3	SID160770554	0.0747	83.4	-0.395	103	inactive
E2F6	SID160730733	0.906	99.9	0.346	102	inactive
E2F6	SID160757691	4.59	173	3.24	82.4	active
E2F6	SID160757702	1.26	107	0.527	104	inactive
CHRFAM7A	SID160753445	0.223	86.3	0.265	90	inactive
CHRFAM7A	SID160753446	-1.38	54.4	-1.48	89.7	inactive
CHRFAM7A	SID160753447	-0.0206	81.5	-0.683	109	inactive

In a second layout: 6 of the entries above.
{"gene knocked down":"HMGN5","PubChem SID":"SID160748835","total luciferase, z-score":0.00233,"total luciferase, % of control":81.9,"luciferase per cell, z-score":-0.307,"viable cells, % of control":99.3,"activity call":"inactive"}
{"gene knocked down":"HMGN5","PubChem SID":"SID160748836","total luciferase, z-score":0.499,"total luciferase, % of control":91.8,"luciferase per cell, z-score":0.368,"viable cells, % of control":93.1,"activity call":"inactive"}
{"gene knocked down":"HMGN5","PubChem SID":"SID160748838","total luciferase, z-score":-2.03,"total luciferase, % of control":41.5,"luciferase per cell, z-score":-2.73,"viable cells, % of control":94.9,"activity call":"inactive"}
{"gene knocked down":"INSM1","PubChem SID":"SID160775889","total luciferase, z-score":0.195,"total luciferase, % of control":85.8,"luciferase per cell, z-score":0.337,"viable cells, % of control":87.7,"activity call":"inactive"}
{"gene knocked down":"INSM1","PubChem SID":"SID160775890","total luciferase, z-score":1.42,"total luciferase, % of control":110,"luciferase per cell, z-score":0.907,"viable cells, % of control":96.8,"activity call":"inactive"}
{"gene knocked down":"INSM1","PubChem SID":"SID160775891","total luciferase, z-score":-0.0584,"total luciferase, % of control":80.7,"luciferase per cell, z-score":-0.488,"viable cells, % of control":103,"activity call":"inactive"}

More results follow:
gene knocked down	PubChem SID	total luciferase, z-score	total luciferase, % of control	luciferase per cell, z-score	viable cells, % of control	activity call
SLC25A47	SID160762984	-1.94	43.3	-1.73	76.2	inactive
SLC25A47	SID160762985	0.992	102	0.855	90.7	inactive
SLC25A47	SID160762986	-0.158	78.8	-1.1	117	inactive
CCNK	SID160720864	-1.27	56.7	-0.484	72	inactive
CCNK	SID160720867	0.82	98.2	1.77	68.9	inactive
CCNK	SID160732098	0.407	90	2.41	53.3	inactive
SOX30	SID160729852	1.9	120	1.57	88.5	inactive
SOX30	SID160729853	0.52	92.2	0.283	95.6	inactive
SOX30	SID160729854	2.06	123	1.16	101	inactive
BRME1	SID160748748	0.674	95.3	0.00487	106	inactive
BRME1	SID160748749	0.267	87.2	0.106	94.8	inactive
BRME1	SID160748750	0.289	87.6	-0.39	109	inactive
RRAGA	SID160729012	0.696	95.7	0.535	92.9	inactive
RRAGA	SID160729013	0.696	95.7	0.564	92.2	inactive
RRAGA	SID160729014	0.614	94.1	0.451	93.4	inactive
LMNTD2	SID160724959	-0.179	78.3	0.228	82.4	inactive
LMNTD2	SID160762429	-1.6	50.1	-1.2	77	inactive
LMNTD2	SID160762430	1.39	109	2.24	67.9	inactive
UFM1	SID160733514	1.47	111	2.41	65.9	inactive
UFM1	SID160741023	0.119	84.3	0.093	91.9	inactive
UFM1	SID160741024	-0.673	68.5	-0.618	90.1	inactive
TAS2R13	SID160739748	-2.3	36.2	-2.73	82.9	inactive
TAS2R13	SID160739749	0.289	87.6	-0.249	105	inactive
TAS2R13	SID160739750	1.65	115	0.659	108	inactive
